Experimental data: publication PMC7862700
Only a part is listed here, and it is no random draw. At the low end of the ranking, values are background and their order means little.

Protein sequences, listed by entry. Tags and fused reporters are not part of them. Lines headed by an entry give the natural chain unless they say otherwise; changes in a name come on top.
UniProt Q9Y603: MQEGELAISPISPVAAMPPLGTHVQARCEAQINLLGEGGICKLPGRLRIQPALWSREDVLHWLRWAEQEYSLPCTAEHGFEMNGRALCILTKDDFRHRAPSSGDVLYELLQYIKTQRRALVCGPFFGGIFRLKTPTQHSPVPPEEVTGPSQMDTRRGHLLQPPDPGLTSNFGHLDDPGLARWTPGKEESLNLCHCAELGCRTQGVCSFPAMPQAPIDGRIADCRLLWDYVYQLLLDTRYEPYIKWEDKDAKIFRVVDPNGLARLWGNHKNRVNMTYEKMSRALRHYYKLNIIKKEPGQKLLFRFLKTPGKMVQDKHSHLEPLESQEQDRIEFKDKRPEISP
UniProt P41212: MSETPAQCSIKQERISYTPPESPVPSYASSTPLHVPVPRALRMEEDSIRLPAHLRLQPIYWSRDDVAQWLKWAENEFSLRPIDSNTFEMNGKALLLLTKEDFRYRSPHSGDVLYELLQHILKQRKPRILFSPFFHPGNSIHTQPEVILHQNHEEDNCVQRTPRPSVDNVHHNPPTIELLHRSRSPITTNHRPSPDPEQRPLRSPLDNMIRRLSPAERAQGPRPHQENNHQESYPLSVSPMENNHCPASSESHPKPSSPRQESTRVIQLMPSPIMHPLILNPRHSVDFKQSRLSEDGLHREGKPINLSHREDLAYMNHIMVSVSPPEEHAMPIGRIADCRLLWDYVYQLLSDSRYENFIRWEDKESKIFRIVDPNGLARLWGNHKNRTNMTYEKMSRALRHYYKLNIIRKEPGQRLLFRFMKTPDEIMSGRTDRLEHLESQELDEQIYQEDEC

Legend:
ETV7 = ETV7 (UniProt Q9Y603); experiment: DAPPL (digital affinity profiling via proximity ligation, sequencing); details: 10 mM Tris-HCl pH 7.5, 50 mM NaCl, 1 mM DTT, 4% glycerol, room temperature, 30 min; GST-TFs on glutathione beads, 16-mer random dsDNA library, 0.1% …; high values mean tight binding; double strand, one strand shown; scale: fold enrichment (6-mer frequency, TF over GST control)
ETV6 = ETV6 (UniProt P41212); experiment: as above; details: 10 mM Tris-HCl pH 7.5, 50 mM NaCl, 1 mM DTT, 4% glycerol, room temperature, 30 min; GST-TFs on glutathione beads, 16-mer random dsDNA library, 0.1% …; high values mean tight binding; double strand, one strand shown; scale: fold enrichment (6-mer frequency, TF over GST control)

Sequence	binding signal (ETV7)	binding signal (ETV6)
TTCTAC	1.54	1.49
CCCTTG	1.18	1.17
GTCTCG	1.28	
ATAAGG	0.975	
ACTTGA	1.08	0.919
TCGCCG	0.984	
GCGTAT	0.955	0.891
TGCAAG	0.953	0.99
GCGATT	0.916	0.926
TCGATG	1.17	
GGACAT	1.23	1.18
CGCTAA	0.941	0.942
AAGTTC	1.4	1.52
ATACGC	1.06	
GGTTAA	0.92	0.886
TGACTG	0.905	1.06
CGGCAC	1	
ACAAGG	0.91	0.97
AATCAC	1.02	
ATATCA	1.13	1.18
GCACAC	0.943	0.983
CCGTTA	0.907	0.957
AACAAC	1.3	
CGTAAA	1.08	

Sequence	binding signal (ETV7)	binding signal (ETV6)
AGCTGA	1.09	0.988
AACGCC	0.942	
AGTTAT	0.928	0.97
ACACCA	0.992	0.989
AGTACG	0.889	
AAAGTA	1.21	1.15
GTCAAA	0.974	0.946
ACTGTT	1.01	
AGAACC	0.986	0.931
TATTGA	1.14	1.16
TACGAG	0.975	0.973
TCGCGG	1.02	1
CTACCG	1.54	1.53
AATTCT	1.26	1.25
ACCGGT	0.815	0.932
ACGTCA	0.92	0.995
AAATCG	1.08	1.05
TATGAG	0.983	0.925
CTGCAG	1.13	1.11
GTATCG	0.864	0.917
TGGTGA	0.988	0.921
AAGCCT	1.3	1.23
CAACTA	1.24	1.25
TGTGCA	0.912	1

Sequence	binding signal (ETV7)	binding signal (ETV6)
GGTCAC	0.939	0.993
CCCATA	1.19	1.31
ACAAGT	0.954	0.983
TGGATC	0.884	0.917
TACGGT	1.08	0.941
TGAAAT	0.949	0.952
GTGTTA	0.986	0.937
CCCAAG	0.936	0.945
ATAGTC	0.945	0.997
CTTTGA	1.34	1.25
CAATTC	1.24	1.16
GCGGCA	0.981	0.931
CCGAAC	1.14	1.28
CCAACT	1.2	1.18
CGCCTA	0.987	1.14
ACCCGA	1.11	1.04
CATCAA	0.923	0.969
CCTCGG	1.11	1.24
GAGCTT	0.963	0.922
CTGGAA	1.32	1.34
ACCGCC	1.21	1.26
CCAGCA	0.931	0.871
TGGAAC	0.962	0.939
GTATGA	0.964	0.923

Sequence	binding signal (ETV7)	binding signal (ETV6)
TGATAC	0.991	1.1
CTAAGG	0.946	0.938
GAAAGG	1.02	0.965
TCGTTG	0.945	0.889
CTCCAG	0.971	0.978
TCCCGA	1.35	1.22
CTAGTG	0.9	0.805
AGTCCC	1.07	0.983
TCAATC	1.01	1.06
AGCGAT	1.09	0.995
CAAGTT	0.997	1.09
GTGCAC	0.939	0.869
AGAATG	0.949	0.966
TCAGTA	0.948	0.931
GTGGTT	0.948	0.929
TACGGG	0.926	0.855
TGGGTG	0.978	1.21
GTGTTC	1.11	1.09
ACACGC	0.986	1.13
CAGCAC	0.971	0.918
ACAAAT	1.14	1.17
AGCATA	1.01	0.917
GAAAGC	0.877	0.91
CTACAC	1.25	1.36

Complete entries from above.
ACAAAT in the list: binding signal (ETV7): 1.14; binding signal (ETV6): 1.17
CTCCAG in the list: binding signal (ETV7): 0.971; binding signal (ETV6): 0.978
GAAAGG in the list: binding signal (ETV7): 1.02; binding signal (ETV6): 0.965
TCAATC in the list: binding signal (ETV7): 1.01; binding signal (ETV6): 1.06

Remaining list, next part

Sequence	binding signal (ETV7)	binding signal (ETV6)
CATGCG	1.21	1.16
TCACCA	1.04	1.08
ACCAAG	0.852	0.918
GATACC	0.924	0.875
TAGCAA	1.25	1.29
CCCGCT	1.36	1.38
ATAGCG	0.975	0.977
ATGGTG	0.988	1.11
AAGCAT	1.14	1.14
GACCGC	0.849	0.969
GTACTG	0.938	0.9
ACTGTC	0.978	0.928
CCCTCA	1.07	1.09
AGAGCT	0.953	0.927
CGCGCT	1.14	1.15
GAATGA	0.909	1.02
GCCGAA	0.973	0.983
CATGCA	1.03	1.18
TATAGA	1.08	1.11
CTATGT	1.3	0.995
GCCACA	0.856	0.901
TGTGGT	1.11	0.97
AAGACT	1.08	1.13
AGGTCC	0.969	0.996
